These results are taken from PubChem BioAssay AID445 (National Center for Advancing Translational Sciences (NCATS), 2006).

Structures are written as SMILES. The list shows a part of the results. Shown are side measurements of this screen, not its main read-out; they come without a call. The list favours compounds with an active or inconclusive main result. Potencies come from curve fits of mixed quality, noted in brackets.

The nature of this assay: IkB Signaling. The settings on record: ABC-DLBCL IkBa-CBG/CBR dual luciferase ratio (green luciferase fused to IkBa over red control in OCI-Ly3 lymphoma cells), 4 h. The gist of the method:
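Luminescence ratio of IκBα-fused green versus native red beetle luciferase in OCI-Ly3 cells, 4 h post-doxycycline with compound; red signal alone, scaled from basal (0%) to zero light (-100%), flagged nonspecific or cytotoxic effects.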

The mark [1] stands for this setting: measured here: control luc red channel unless noted.
[2] abbreviates: measured here: IkB-luc green channel.
The mark [3] stands for this setting: measured here: control luc red channel.

`CCOC(=O)c1ccc(NS(=O)(=O)c2cc(-c3onc(C)c3C)ccc2C)cc1`: the concentration at half-maximal activity (AC50) under setting [1] was 39.8 µM [falling, single point].
The same measure, in the same setting: under `CCSc1nnc(NC(=O)c2ccc(Br)s2)s1` stands 0.398 µM [falling, full curve]; under `CCN1C(=O)c2ccccc2S(=O)c2ccc(C(=O)N3CCN(c4cccc(C)c4)C(C)C3)cc21` (centres undefined), 20 µM [falling, single point]; under `COc1ccc(/C=C(\C#N)c2nc(-c3cc4c(ccc5ccccc54)oc3=O)cs2)cc1O`, 3.98 µM [falling, partial curve].
Still for that read-out and setting: the result for `O=C(O)c1ccc(-n2c(/C=C\c3ccc(O)cc3)nc3ccccc3c2=O)cc1` reads 20 µM [falling, single point]; that for `CCOC(=O)c1ccccc1NC(=O)c1sc2ncn(Cc3cccc(F)c3)c(=O)c2c1C`, 20 µM [falling, partial curve, poor fit]; that for `CC1=C(C(=O)Nc2cccnc2)C(c2ccc(Cl)cc2)n2nc(-c3ccccc3)nc2N1` (centres undefined), 12.6 µM [falling, partial curve].
The same measure, in the same setting: the result for `COc1ccc(OC)c(S(=O)(=O)NCc2cccn2Cc2cccc(C)c2)c1` reads 20 µM [falling, single point].
Turning to `Clc1ccc(OCCN2CCN(c3ncnc4sccc34)CC2)cc1`, the AC50 under setting [1] was 12.6 µM [falling, partial curve].
Take `Cc1ccc(C)c(NC(=O)CSc2c3c(nc4ccc(Cl)cc24)CCCC3)c1`: the concentration at half-maximal activity (AC50) under setting [1] is 3.16 µM [falling, single point].
Still for that read-out and setting: the result for `COc1cn(CC(=O)Nc2cccc(C)c2C)c(CN2CCCCC2)cc1=O` reads 6.31 µM [rising, single point]; that for `COc1ccc(C(=O)Nc2cccc(OCc3cc(=O)n4c5c(sc4n3)CCCC5)c2)cc1`, 0.631 µM [falling, full curve].
Take `COc1ccc(CC(=O)Nc2cccc(-c3nnc(-c4cccc(C)c4)o3)c2)cc1OC`: the AC50 by setting is: under setting [2], 2 µM [falling, full curve]; under setting [3], 0.794 µM [falling, full curve].
Regarding `COC(=O)c1sc(NC(=O)/C=C/c2ccc(OC)c(OC)c2)c(C(=O)OC)c1C`, the AC50 is, setting by setting: under setting [2], 10 µM [rising, partial curve]; under setting [3], 1.26 µM [falling, full curve].
For the compound `COc1ccccc1-c1cc(C(=O)Nc2ccccc2C(F)(F)F)no1`, under setting [1], the AC50 was 0.00794 µM [falling, full curve].
Same read-out and setting: under `O=C(NCCSCc1ccc(Cl)cc1)C1CCN(S(=O)(=O)Cc2ccccc2)CC1` stands 15.8 µM [falling, single point].
On the same count and under the same terms, the result for `O=C(CN1C(=O)C2CCCCN2c2ccc(C(=O)N3CCCC3)cc21)NCc1cccc(Cl)c1` (centres undefined) reads 2 µM [falling, full curve, poor fit].
On the same count and under the same terms, the result for `Cc1ccc(Cl)c2sc(NC(=O)CS(=O)(=O)c3ccc(Cl)cc3)nc12` reads 15.8 µM [falling, partial curve].
On to `Cc1ccc(CN(C(=O)Nc2cccc(Cl)c2)c2ccccn2)cc1`, for which the AC50 under setting [1] is 0.501 µM [rising, full curve].
Same read-out and setting: the result for `O=C(CSc1nnc2c(n1)[nH]c1ccc(F)cc12)OCc1ccccc1` reads 15.8 µM [falling, partial curve].
Consider `COc1ccc(Cn2nnnc2C(C(C)C)N2CCc3ccccc32)cc1` (centres undefined), for which the AC50 under setting [1] was 20 µM [falling, single point].
On the same count and under the same terms, under `O=C(Nc1ccc(N2CCN(C(=O)c3ccco3)CC2)c(Cl)c1)c1cc2ccccc2o1` stands 3.98 µM [falling, full curve] [measured here: IkB-luc green channel]; under `Cc1ccc(Cn2c(-c3ccccc3)nc3ccccc32)cc1`, 25.1 µM [falling, single point].
The same measure, in the same setting: the result for `COc1cc(/C=C(\C#N)c2nc3ccccc3c(=O)[nH]2)cc(OC)c1OC` reads 2.51 µM [falling, partial curve]; that for `COc1cccc(-c2cc(N)nn2C(=O)Nc2ccc(Cl)cc2)c1`, 31.6 µM [falling, single point].
`Cc1ccc(C)c(Cn2c(=O)n(CCCCC(=O)NCc3ccccc3Cl)c(=O)c3ccccc32)c1`: the concentration at half-maximal activity (AC50) under setting [1] is 0.0501 µM [rising, full curve, poor fit].
For `CCOc1ccccc1NC(=O)Cn1ccn(-c2ccccc2)c(=O)c1=O`, the half-maximal activity concentration (AC50) under setting [1] was 10 µM [falling, partial curve].
Still for that read-out and setting: under `COc1ccccc1N1CCN(c2csc3ccc(Cl)cc3c2=O)CC1` stands 0.0398 µM [rising, full curve, poor fit]; under `N#Cc1c(NC(=O)Cn2cnc3ccccc3c2=O)oc(-c2ccccc2)c1-c1ccccc1`, 10 µM [falling, partial curve]; under `Cn1c(=NC(=O)c2ccc3c(c2)OCCO3)sc2cc(S(C)(=O)=O)ccc21`, 15.8 µM [rising, partial curve, poor fit].
Same read-out and setting: the result for `CCOC(=O)c1ccc(NC(=O)C2CCCN(c3ccc(Sc4ccc(C)cc4)nn3)C2)cc1` (centres undefined) reads 10 µM [falling, partial curve]; that for `Cc1cc(Br)ccc1NC(=O)CCS(=O)(=O)c1cccc2nsnc12`, 0.158 µM [falling, full curve, poor fit].
Same read-out and setting: under `CC(=O)NCCNc1nc2c(S(=O)(=O)c3ccc(C)c(C)c3)nnn2c2ccc(Cl)cc12` stands 20 µM [falling, single point]; under `CCN(CCCCN1C(=O)c2ccccc2C1=O)c1ccc2c(c1)C(=O)N(C)C2=O`, 15.8 µM [falling, partial curve]; under `Cc1ccc(C(C)C)c(OCC(=O)Nc2ccc(S(=O)(=O)Nc3onc(C)c3C)cc2)c1`, 39.8 µM [falling, single point].
In the case of `CCn1c(SCC(=O)Nc2cccc(NC(=O)c3cccs3)c2)nnc1-c1ccncc1`, the concentration at half-maximal activity (AC50) under setting [1] was 10 µM [falling, partial curve].
In the case of `COc1ccc(-c2cn3nc(N4CCC(C(=O)Nc5cccc(Cl)c5)CC4)sc3n2)cc1`, under setting [1], the AC50 is 6.31 µM [rising, single point].
On the same count and under the same terms, under `Cc1ccc(CNC(=O)Cc2coc3cc(C)cc(C)c23)cc1` stands 3.16 µM [falling, full curve]; under `CCOc1cc(-c2noc(CCCC(N)=O)n2)cc(Br)c1OC`, 5.01 µM [falling, partial curve].
On the same count and under the same terms, under `Cc1cccc(N2CCN(C(=O)CSCc3ccc(F)cc3)CC2)c1C` stands 20 µM [falling, partial curve].
The same measure, in the same setting: under `CCCCN(C)C(=O)C1CCCN(c2ncnc3onc(-c4ccc(F)cc4)c23)C1` (centres undefined) stands 39.8 µM [falling, partial curve].
Regarding `O=C(NCc1ccccc1)c1ccc(NC(=O)c2nsc3ccccc23)cc1`, the AC50 under setting [1] was 0.158 µM [falling, full curve].
The same measure, in the same setting: under `COc1ccc(CNC(=O)CCC(=O)N2CC3CCCN3c3ccccc32)cc1` (centres undefined) stands 12.6 µM [falling, partial curve]; under `COc1ccccc1CNC(=O)c1ccc(CS(=O)(=O)c2ccccc2C)o1`, 12.6 µM [falling, single point]; under `CCCOC(=O)c1ccc(Oc2c(-c3ccc(O)cc3O)n[nH]c2C)cc1`, 25.1 µM [falling, single point].
On the same count and under the same terms, under `CC(=O)N1CCCc2cc(S(=O)(=O)N3CCC(C(=O)NCc4ccc(N(C)C)cc4)CC3)ccc21` stands 15.8 µM [falling, single point]; under `CCOc1cccc(CC(=O)Nc2ccc3nc(N4CCCCC4)cc(C)c3c2)c1OCC`, 6.31 µM [rising, partial curve].
Still for that read-out and setting: under `Cc1nc2nc(SCC(=O)NCCc3ccccc3)nn2c(C)c1Cc1c(F)cccc1Cl` stands 25.1 µM [falling, single point]; under `O=C(CSc1nc2ncc(Br)cc2[nH]1)Nc1ccc2c(c1)OCO2`, 12.6 µM [falling, partial curve]; under `CC1(C)CC(=O)C2=C(C1)OC(N)=C(C#N)C2C1CC=CCC1` (centres undefined), 25.1 µM [falling, partial curve].
Take `Cc1ccc(C(C)C)c(OCC(=O)N2CCC(c3nc4ccccc4o3)CC2)c1`: the AC50 under setting [1] is 15.8 µM [falling, partial curve].
Still for that read-out and setting: the result for `Nc1c(C(=O)c2ccc(Br)s2)oc2ccccc12` reads 7.94 µM [rising, single point] [measured here: IkB-luc green channel].
Take `CCn1c(SCCOc2ccccc2F)nc2ccccc21`: the AC50 under setting [1] was 39.8 µM [falling, single point].
For `CCOc1ccccc1C(=O)Nc1ccc2c(c1)N(C)C(=O)c1ccccc1S2`, the concentration at half-maximal activity (AC50) under setting [1] is 15.8 µM [falling, partial curve].
In the case of `Cc1ccccc1OCC(=O)N(Cc1nc(-c2ccccc2)no1)C(C)C`, under setting [1], the concentration at half-maximal activity (AC50) is 39.8 µM [falling, single point].
As for `Cc1c(C2=CCN(S(=O)(=O)c3ccc(CC(C)C)cc3)CC2)c2ccccc2n1CC(=O)N1CCCC1`, the half-maximal activity concentration (AC50) under setting [1] was 0.0398 µM [falling, full curve].
Still for that read-out and setting: under `CC(=O)c1cn(CC(=O)NCc2ccc3c(c2)OCO3)c2ccccc12` stands 5.01 µM [falling, partial curve].
Same read-out and setting: the result for `Cn1c(=O)nc2n(-c3ccc(Cl)c(Cl)c3)c3cc(Cl)ccc3cc-2c1=O` reads 3.98 µM [falling, full curve]; that for `O=C(Nc1c(C(=O)Nc2ccc(F)cc2)oc2ccccc12)c1ccccc1F`, 12.6 µM [falling, partial curve]; that for `CC1=C(C(=O)OCC2CCCCC2)C(c2ccccc2F)CC(=O)N1` (centres undefined), 15.8 µM [falling, partial curve].
In the case of `Cc1ccc(NC(=O)Cn2c(=O)n(CCCCC(=O)NCCc3ccccc3)c(=O)c3ccccc32)c(C)c1`, under setting [1], the concentration at half-maximal activity (AC50) is 25.1 µM [falling, partial curve, poor fit].
Regarding `COc1cc(NC(=O)Cn2nc(C(F)(F)F)c3c2CCCC3)c(OC)cc1Cl`, the concentration at half-maximal activity (AC50) under setting [1] was 25.1 µM [falling, single point].

Usually AC50 stands for the concentration at which the activity in the assay is half-maximal.
